This is an account of results in PubChem BioAssay AID192 (DTP/NCI, 2004).

SMILES strings stand for the structures. The list shows only some results of the screen, not a fair sample: it gathers tests that were run many times, whatever their T/C, doses with no T/C, and many T/C values between a quarter and a half above the control. Other doses and runs of a compound stand elsewhere. T/C gives the treated animals as a percentage of the vehicle group. Some entries give survivors of the animals treated and no T/C: the source holds a T/C of zero for them, seemingly a mark for toxic or unscored doses. Some survivor counts are full or nearly so, which does not show that the dose was tolerated: the source hardly ever lists a survival T/C far under the control, and the zero likely stands for such cases as well. Survivors were counted at the toxicity check, usually on the fifth day, unless a day is given; later deaths do not show. Schedules are NCI's codes, taken here to give the interval after Q, in days (D) or hours (H), and the number of doses after X. Some entries were tested several times; the values are given in rising order. Where survival is the endpoint, the PubChem record calls one and a half times the control and up active, and a quarter to a half above the control has no call in these data; cut-offs in other NCI protocols can differ. Some T/C values carry the count of animals alive at the toxicity check (mostly the fifth day); without a count, all were alive then. Square brackets hold non-standard residues; d marks the D form. Peptide text beside a SMILES is read from it. * marks the point of attachment. ξ: configuration not given here. Cbz = O=C(OCc1ccccc1)*; ξV = CC(C)C(N)C(=O)O; Sar = CNCC(=O)O

This assay deals with BDF1 mice, B16 melanoma ip, median survival T/C. The assay is described as follows: NCI In Vivo Anticancer Drug Screen. Data for tumor model B16 Melanoma (intraperitoneal) in B6D2F1 (BDF1) mice. The following applies: T/C endpoint: median survival time, higher T/C = longer survival. In outline: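 Values are ratios of treated (T) to vehicle-control (C) measurements of survival or tumor size in tumor-bearing mice.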

[1] abbreviates: dose: 200.0 mg/kg/injection, schedule: Q01DX009 (ip), vehicle: Klucel (hydroxypropylcellulose) (HPC).
Setting [2] is: dose: 25.0 mg/kg/injection, schedule: Q01DX009 (ip), vehicle: saline.
[3] abbreviates: dose: 50.0 mg/kg/injection, schedule: Q01DX009 (ip), vehicle: Klucel (hydroxypropylcellulose) (HPC).
Setting [4] is: dose: 50.0 mg/kg/injection, schedule: Q01DX009 (ip), vehicle: saline.
The mark [5] stands for this setting: dose: 100.0 mg/kg/injection, schedule: Q01DX009 (ip), vehicle: Klucel (hydroxypropylcellulose) (HPC).
[6] abbreviates: dose: 100.0 mg/kg/injection, schedule: Q01DX009 (ip), vehicle: saline.
The mark [7] stands for this setting: dose: 200.0 mg/kg/injection, schedule: Q01DX009 (ip), vehicle: saline.
The mark [8] stands for this setting: dose: 400.0 mg/kg/injection, schedule: Q01DX009 (ip), vehicle: saline.
Setting [9] is: dose: 100.0 mg/kg/injection, schedule: Q01DX009 (ip), vehicle: saline with Tween-80.
The mark [10] stands for this setting: dose: 50.0 mg/kg/injection, schedule: Q01DX009 (ip), vehicle: saline with Tween-80.
Setting [11] is: dose: 25.0 mg/kg/injection, schedule: Q01DX009 (ip), vehicle: saline with Tween-80.
Setting [12] is: dose: 400.0 mg/kg/injection, schedule: Q01DX009 (ip), vehicle: saline with Tween-80.

On to `CO[C@@]12[C@@H]3N[C@@H]3CN1C1=C(C(=O)C(NCc3ccco3)=C(C)C1=O)[C@@H]2COC(N)=O`, for which the T/C is 143 % of control (dose: 2.0 mg/kg/injection, schedule: Q01DX001 (ip), vehicle: distilled water + Tween-80) and 144 % of control (dose: 4.0 mg/kg/injection, schedule: Q01DX001 (ip), vehicle: distilled water + Tween-80). In addition, the survivor count runs as follows: (dose: 3.0 mg/kg/injection, schedule: Q04DX003 (ip), vehicle: distilled water + Tween-80) 10 of 10; (dose: 48.0 mg/kg/injection, schedule: Q04DX003 (ip), vehicle: distilled water + Tween-80) 10 of 10.
Take `CC(=O)O[C@]1(C(C)=O)CC[C@H]2[C@@H]3C=C(Cl)C4=CC(=O)[C@@H]5C[C@@H]5[C@]4(C)[C@H]3CC[C@@]21C`: the survivor count runs as follows: under setting [1], 10 of 10; (dose: 400.0 mg/kg/injection, schedule: Q01DX009 (ip), vehicle: Klucel (hydroxypropylcellulose) (HPC)) 10 of 10.
Consider `CCCCNC(C)[C@]1(O)Cc2c(O)c3c(c(O)c2[C@@H](OC2CC(N)C(O)C(C)O2)C1)C(=O)c1c(OC)cccc1C3=O` (some centres not stated), for which the survivor count was 7 of 10 and 9 of 10 (dose: 37.5 mg/kg/injection, schedule: Q01DX001 (ip), vehicle: water); 0 of 10, 2 of 10, 3 of 10 (dose: 75.0 mg/kg/injection, schedule: Q01DX001 (ip), vehicle: water); 0 of 10 (dose: 150.0 mg/kg/injection, schedule: Q01DX001 (ip), vehicle: water).
In the case of `O=NNc1cnccn1`, the T/C (dose: 12.5 mg/kg/injection, schedule: Q01DX009 (ip), vehicle: water) was 136 % of control. Besides, the survivor count reads like this: (dose: 50.0 mg/kg/injection, schedule: Q01DX009 (ip), vehicle: water) 9 of 10; (dose: 100.0 mg/kg/injection, schedule: Q01DX009 (ip), vehicle: water) 10 of 10; (dose: 200.0 mg/kg/injection, schedule: Q01DX009 (ip), vehicle: water) 0 of 10.
On to `Cc1cc2nc3ccc(N)cc3oc-2cc1=[N+](C)C`, for which the T/C runs as follows: under setting [2], 130 % of control; under setting [4], 147 % of control [9 of 10 alive]. Moreover, the survivor count is, setting by setting: under setting [3], 6 of 10; under setting [5], 0 of 10; under setting [6], 9 of 10; under setting [1], 0 of 10; under setting [7], 0 of 10.
With `COC1=C2CC(C)CC(OC)C(O)C(C)/C=C(\C)C(OC(N)=O)C(OC)/C=C\C=C(/C)C(=O)NC(=C(/C=N/N3CCOCC3)C1=O)C2=O` (configuration not stated), the survivor count (dose: 50.0 mg/kg/injection, schedule: Q01DX005 (ip), vehicle: other) is 6 of 6.
For `O=C(O)C(O)C(O)C1[O][Sb][O]C1CO` (configuration not stated), the survivor count under setting [8] is given as 1 of 10.
With `Cc1cc(=O)n2c3c(c4c(cc13)c(CN(C)C)cc(=O)n4C)OC2`, under setting [9], the survivor count is 4 of 10.
Take `O=C(O)/C(Cl)=C(/Cl)C(Cl)=C(Cl)Cl`: the survivor count is, setting by setting: under setting [10], 10 of 10; under setting [9], 10 of 10.
For the compound `CC(C)C[C@H](O)C(=O)O`, the survivor count is recorded as 6 of 6 under setting [6], 6 of 6 under setting [7] and 1 of 6 under setting [8].
For the compound `CCOC(=O)c1ccc(NC(=O)Nc2nccs2)cc1`, the T/C by setting is: under setting [11], 114, 121, 135, 146 % of control; under setting [10], 121, 131, 140 [9 of 10 alive], 147 % of control; under setting [9], 129, 131, 140, 166 % of control; (dose: 200.0 mg/kg/injection, schedule: Q01DX009 (ip), vehicle: saline with Tween-80) 126, 143, 162, 167 % of control; under setting [12], 153 % of control [9 of 10 alive]. Also, under setting [12], the survivor count was 8 of 10, 9 of 10, 10 of 10.
On to `COc1cc(NS(C)(=O)=O)ccc1Nc1c2cccc(C)c2nc2c(C)cccc12`, for which the T/C reads like this: (dose: 3.13 mg/kg/injection, schedule: Q01DX009 (ip), vehicle: other) 136 % of control; (dose: 6.25 mg/kg/injection, schedule: Q01DX009 (ip), vehicle: other) 147 % of control; (dose: 25.0 mg/kg/injection, schedule: Q01DX001 (ip), vehicle: saline sonified) 141 % of control. For the same compound, the survivor count (dose: 50.0 mg/kg/injection, schedule: Q01DX009 (ip), vehicle: saline sonified) is 10 of 10; the survivor count (dose: 100.0 mg/kg/injection, schedule: Q01DX009 (ip), vehicle: saline sonified) is recorded as 9 of 10; the survivor count (dose: 100.0 mg/kg/injection, schedule: Q04DX003 (ip), vehicle: other) was 10 of 10; the survivor count (dose: 200.0 mg/kg/injection, schedule: Q04DX003 (ip), vehicle: other) is listed as 10 of 10; the survivor count (dose: 400.0 mg/kg/injection, schedule: Q01DX001 (ip), vehicle: saline sonified) was 9 of 10.
On to `Nc1nnc[se]1`, for which the survivor count by setting is: under setting [10], 10 of 10; under setting [9], 6 of 10.
As for `CN1C2C=C(c3ccccc3)C(Br)C1CC2` (configuration not stated), for the setting “dose: 80.0 mg/kg/injection, schedule: Q01DX009 (ip), vehicle: saline with Tween-80”, the survivor count is reported as 10 of 10.
For the compound `CN(C)C(=O)c1cccc(COc2ccc(N3C(N)=NC(N)=NC3(C)C)cc2Cl)c1`, the survivor count reads like this: under setting [4], 5 of 10; under setting [6], 0 of 10 and 6 of 6.
As for `CCCCCCCCCCCCCCCCCC(=O)[O][Hg][c]1ccccc1`, under setting [11], the survivor count is reported as 4 of 6.
Turning to `CCCCCC[N+](CCCCCC)(CCCCCC)CCCCCC`, the survivor count is recorded as 9 of 10 (dose: 3.0 mg/kg/injection, schedule: Q01DX009 (ip), vehicle: Klucel (hydroxypropylcellulose) (HPC)) and 7 of 10 (dose: 6.0 mg/kg/injection, schedule: Q01DX009 (ip), vehicle: Klucel (hydroxypropylcellulose) (HPC)).
Take `C1CC[N-]CC1.CC(=N\O)/C(C)=N/O.CC(=N\O)/C(C)=N/O.C[CH-]CC.[Co+2]`: the survivor count under setting [5] is 9 of 10.
With `CCOC(=O)C(=CN1CCCCCC1)C(=O)OCC`, under setting [12], the survivor count is reported as 7 of 10.
Turning to `CN(C)C(C#N)C(=O)c1ccccc1` (configuration not stated), under setting [1], the survivor count was 0 of 10.
As to `Cc1ccc(NC(=O)Nc2ccccc2Cl)cc1`, the survivor count (dose: 200.0 mg/kg/injection, schedule: Q01DX009 (ip), vehicle: gum acacia) is listed as 10 of 10 and the survivor count (dose: 400.0 mg/kg/injection, schedule: Q01DX009 (ip), vehicle: gum acacia) was 10 of 10.
Regarding `N#CC(Br)C(N)=O` (configuration not stated), the survivor count was 10 of 10 (dose: 10.0 mg/kg/injection, schedule: Q01DX009 (ip), vehicle: saline) and 4 of 10 (dose: 20.0 mg/kg/injection, schedule: Q01DX009 (ip), vehicle: saline).
For `CCC1(CC)COC(=O)NC1=O`, the survivor count under setting [2] is 7 of 10.
For the compound `CC(C)C(NC(=O)CN(C)C(=O)OCc1ccccc1)C(=O)O` (configuration not stated) (Cbz-[Sar]-[ξV]-OH), the survivor count runs as follows: under setting [6], 4 of 10; under setting [7], 0 of 10; under setting [8], 0 of 10.
On to `CC(=O)NC(CCC(=O)C=[N+]=N)C(=O)O` (configuration not stated), for which the survivor count (dose: 0.4 mg/kg/injection, schedule: Q01DX009 (ip), vehicle: other) is 6 of 6; the survivor count (dose: 0.6 mg/kg/injection, schedule: Q01DX009 (ip), vehicle: other) is on record as 6 of 6; the survivor count (dose: 0.8 mg/kg/injection, schedule: Q01DX009 (ip), vehicle: other) is given as 6 of 6; the survivor count (dose: 1.0 mg/kg/injection, schedule: Q01DX009 (ip), vehicle: other) was 6 of 6.
As for `Cc1cnc2c(=O)[nH]c(=O)[nH]c2n1`, the survivor count under setting [1] is 10 of 10.
As to `CCC[CH2][Ge]([Cl])([Cl])[CH2]CCC`, the survivor count under setting [3] is 10 of 10.
